System: IgG^PSA
Experiment: Relative degree of biotinylation of IgG^PSA (ELISA, streptavidin-HRP)
Assay type: biochemical, mouse

Compound: O=C1N[C@H]2[C@H](CS[C@H]2CCCCC(=O)ON2C(=O)CCC2=O)N1 [NHS-Biotin, Biotin N-hydroxysuccinimide ester]
- more biotinylation compared to the UV-NBS^Biotin: 2.14 fold
- slope of the linear regression line (relative degree of biotinylation), S (biotinylated IgG^PSA 0-0.25 nM adsorbed to ELISA plates): 39,495
- average number of biotins per IgG^PSA (manufacturer protocol): 2.63
